Measurements reported in PubChem BioAssay AID2685 (National Center for Advancing Translational Sciences (NCATS), 2010).
This is one part of the list. Shown are side measurements of this screen, not its main read-out; they come without a call. Compounds called inactive in the main read-out are mostly missing here. The note in brackets gives the kind of curve behind each potency; many fits are weak.

Test: qHTS Assay for Lipid Storage Modulators in Drosophila S3 Cells;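 on cell number change: cells counted by Cell Tracker Red CMTPX staining in the red channel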
Settings: BODIPY lipid droplet fluorescence, 18-24 h; for cell number change: measured here: cell count max response, cells fed with added oleic acid
Outline: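 Laser-scanning cytometry quantifies lipid droplet accumulation (500–530 nm total intensity; droplet/cell object ratio) in oleic acid-fed (400 uM added) Drosophila S3 cells treated with a concentration series. 20 uM Triacsin C defined 100% inhibition.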

[1] = measured here: cell number channel AC50, cells fed with added oleic acid
[2] = measured here: lipid fluorescence (Fed channel) AC50, cells fed with added oleic acid

SMILES	cell number change [%]	AC50 [1]	AC50 [2]
CCn1c(C)nc2cc(C(=O)NNS(=O)(=O)c3ccccc3F)ccc21	-5.21		
C#CCSc1nc(Cc2ccc(Cl)cc2)nc2ccccc12	94.9	29.1 µM [rising, single point]	
Cc1[nH]c2ccc(C(=O)NC3CCC(C)CC3)cc2c1C (stereo not given)	5.65		
Cc1ccc(C)c(CN2C(=O)c3ccccc3S(=O)c3ccc(C(=O)N4CCN(c5ccccn5)CC4)cc32)c1 (stereo not given)	34.6		13 µM [rising, partial curve]
COc1ccc(Cn2c(=O)sc3ccccc32)cc1OC	-25.9		
CCC1Oc2ccc(C)cc2N(CC(=O)NCc2ccccc2OC)C1=O (stereo not given)	-40.8	29.1 µM [falling, single point]	29.1 µM [falling, single point]
Cc1nn(CC(=O)Nc2ccc(Cl)cc2Cl)c(=O)c2ccccc12	22.3	0.103 µM [rising, full curve, poor fit]	
Cc1ccc(CN(C)C(=O)c2cccc(S(=O)(=O)N3CCCC3)c2)cc1	-4.27		2.91 µM [rising, full curve, poor fit]
O=C(CN1C(=O)C(=O)N(C2CCCC2)C1=O)Nc1ccc(Cl)cc1C(F)(F)F	-29.9		6.51 µM [rising, single point]
CCN(CC)S(=O)(=O)c1ccc(NC2CCN(Cc3ccccc3)CC2)nc1	-10.8		
CC(=O)N1CCN(C(=O)c2ccc3c(c2)OCCO3)CC1		1.16 µM [falling, partial curve]	
CC(C)(OC(=O)c1ccc(C(F)(F)F)cc1)c1cc2ccccc2c(=O)o1	-21.6		4.11 µM [falling, single point]
COc1cc(CNC(C)C23CC4CC(CC(C4)C2)C3)cc(OC)c1OC (stereo not given)	16.3		
CN(CC(=O)Nc1ccccc1Cl)C(=O)COC(=O)c1ccc(Cl)cc1[N+](=O)[O-]	18.8	2.91 µM [rising, full curve, poor fit]	5.17 µM [rising, single point]
Cc1[nH]c(=S)c(C#N)c(C)c1C(=O)Nc1ccccc1			1.84 µM [falling, partial curve, poor fit]
O=S(=O)(c1ccc(Cl)cc1)N1CCN(c2ccc(N3CCOCC3)nn2)CC1	30.1	29.1 µM [rising, single point]	
CCN(CC)S(=O)(=O)c1ccc(Cl)nc1	-15.6	0.651 µM [falling, partial curve, poor fit]	0.092 µM [falling, full curve, poor fit]
COc1ccc(C(CNC(=O)c2cc(C)on2)N(C)C)cc1 (stereo not given)	-2.52		6.51 µM [rising, single point]
O=C1CSC2(N1)C1CC3CC(C1)CC2C3 (stereo not given)	-3.23	0.00461 µM [rising, full curve, poor fit]	
COc1ccc(/C=N/OCC(=O)N2CC3(C)CC2CC(C)(C)C3)cc1OC (stereo not given)	69.8	1.64 µM [rising, full curve]	2.59 µM [rising, full curve]
COc1ccccc1-n1cnnc1SCC(=O)N1CCOCC1			0.0103 µM [falling, full curve]

SMILES	cell number change [%]	AC50 [1]	AC50 [2]
CC(C)N(C(=O)C(=O)c1cccn1-c1ccccc1C#N)C(C)C	-93.3	29.1 µM [falling, partial curve]	0.13 µM [falling, full curve, poor fit]
C=CCC1NS(=O)(=O)O[C@H](CCCC)[C@@H]1O (stereo not given in full)	39.5	20.6 µM [rising, partial curve, poor fit]	
Clc1ccccc1CN1CCN(/N=C/C=C\c2ccco2)CC1		0.731 µM [rising, single point]	
COc1cc2c(cc1OC)C(c1cc(Br)c(OC)c(OC)c1)CC(=O)N2 (stereo not given)	-14.3		20.6 µM [falling, single point]
Cc1nnc(SCc2ccc(Cl)c(Cl)c2)s1	15.8		10.3 µM [rising, single point]
CCOC(=O)c1[nH]c(C)c(C(=O)NCCC2=CCCCC2)c1C	36.5	29.1 µM [rising, single point]	3.66 µM [rising, full curve]
CCOC(=O)C1(C)NC(c2ccc(OC)c(OC)c2)C2C(=O)N(CC)C(=O)C21 (stereo not given)	-81.2	18.4 µM [falling, partial curve, poor fit]	
COc1ccccc1C(=O)C1CCCN(C(=O)CN2CCCCC2=O)C1 (stereo not given)	-23.1		
COc1cccc(CNC(=O)c2ccc(NC3=NC4CS(=O)(=O)CC4S3)cc2)c1 (stereo not given)			29.1 µM [rising, single point]
CC(=O)Nc1ccc(Cl)c(C(N)=O)c1		0.00461 µM [falling, full curve, poor fit]	0.82 µM [falling, partial curve]
COc1cc(S(=O)(=O)Nc2cccc(C)c2)ccc1NC(=O)c1cccnc1	54	3.66 µM [rising, partial curve, poor fit]	6.51 µM [rising, partial curve, poor fit]
O=S(=O)(Cc1ccccc1)N1CCn2c(nc3ccccc32)C1	-1.98		0.0326 µM [rising, full curve]
Cc1cc(C)cc(N2CC34C=CC(O3)C(C(=O)OCC(=O)NCc3ccco3)C4C2=O)c1 (stereo not given)	-32.2	5.8 µM [falling, full curve, poor fit]	4.61 µM [rising, full curve, poor fit]
CS(=O)(=O)N(CC(=O)NCc1ccncc1)c1cc(Cl)ccc1Cl	-19.2		
CCOC(=O)C1=C(c2cccc(F)c2)NC(=S)NC1C (stereo not given)	82.1	5.8 µM [rising, partial curve, poor fit]	0.366 µM [rising, full curve]
Cc1cc2cc(CNC(=O)c3ccco3)ccc2n1C	-63.8	14.6 µM [falling, partial curve]	16.4 µM [falling, partial curve]
COc1cccc(C2NC(=O)NC(C)=C2C(=O)OCC2CCCO2)c1 (stereo not given)	6.51		
CC1CCN(c2ccc(-c3ccc(NC(=O)C(F)(F)F)cc3)nn2)CC1	-88.9		2.59 µM [rising, partial curve]
CCC(=O)N1c2ccc(S(=O)(=O)CCC(=O)NCc3cccs3)cc2CC1C (stereo not given)	43.4	11.6 µM [rising, partial curve, poor fit]	
N#C/C(=C\c1cc2c(cc1Br)OCO2)C(=O)NCC1CCCO1 (stereo not given)	-22.9		29.1 µM [falling, single point]
COc1ccc(C2=CC(=O)C=CC2=O)cc1	-41.1	5.8 µM [falling, full curve]	6.51 µM [falling, full curve]

SMILES	cell number change [%]	AC50 [1]	AC50 [2]
O=S(=O)(c1ccccc1)c1nc(-c2ccccc2)oc1N1CCCCC1	-98.4	4.61 µM [falling, single point]	
CCOc1ccc(C(=O)Nc2ccc3c(c2)OCCO3)cc1	-9.45		29.1 µM [rising, single point]
COc1ccc(-n2nc3c(c2NC(=O)C2CCCC2)CS(=O)C3)cc1 (stereo not given)	17.1		
O=C(Cn1c(=O)oc2cc(S(=O)(=O)N3CCOCC3)ccc21)N1CCc2ccccc2C1	-36.3	18.4 µM [falling, single point]	6.51 µM [falling, single point]
Cc1nn(Cc2ccc(Cl)cc2)c(C)c1NC(=O)CCCn1nc(C)c([N+](=O)[O-])c1C			1.46 µM [falling, full curve]
COc1ccc([C@H]2CC(=O)C=C(c3ccc(Cl)c(C(F)(F)F)c3)C2)cc1	1.49		
CCOC(=O)COc1ccc2c(c1)C(=O)CC1(CCN(C(C)=O)CC1)O2	-13.9	0.103 µM [falling, full curve, poor fit]	
O=C(N/N=C1/CCCc2ccccc21)c1cc([N+](=O)[O-])cc([N+](=O)[O-])c1		0.0651 µM [falling, full curve, poor fit]	0.0731 µM [falling, full curve, poor fit]
Cc1ccc(S(=O)(=O)NNC(=O)c2ccccc2-n2cccc2)cc1	47	0.82 µM [rising, partial curve]	
C=CCn1c(SCCCC)nc(O)cc1=O	8.73		
COC(=O)c1sccc1-n1cccc1C(=O)N1CCOCC1	-22.2		1.46 µM [falling, full curve, poor fit]
O=S(=O)(Cc1ccccc1)Nc1cccc(Br)c1	5.9		8.2 µM [falling, partial curve]
CC1(c2nnc(-c3ccncc3)o2)CC(c2c(Cl)cccc2Cl)=NO1 (stereo not given)	18.2		29.1 µM [rising, single point]
Cc1nn(CC#N)c(=O)n1-c1ccc(C(C)C)cc1	26.1		7.08 µM [rising, partial curve, poor fit]
CC(C(=O)NCCS(=O)(=O)c1ccc(Cl)cc1)S(=O)(=O)c1ccc(Cl)cc1 (stereo not given)	-19.3		
CC(C)CCNc1nc(N)c([N+](=O)[O-])c(NC2CCCCC2)n1	4.23		
Cc1noc(C)c1C(=O)NC(C)C12CC3CC(CC(C3)C1)C2 (stereo not given)	-21.8		16.4 µM [falling, partial curve]
C=CCn1c(CCSCc2ccccc2)n[nH]c1=S	10.8		0.517 µM [falling, full curve, poor fit]
COc1ccc(C(=O)CN2C(=O)c3ccccc3C2=O)c(OC)c1C		5.17 µM [falling, partial curve]	4.61 µM [falling, partial curve]

Exported bar-delimited: two of the compounds above.
SMILES | cell number change [%] | AC50 [1] | AC50 [2]
COc1cc2c(cc1OC)C(c1cc(Br)c(OC)c(OC)c1)CC(=O)N2 (stereo not given) | -14.3 |  | 20.6 µM [falling, single point]
Cc1nnc(SCc2ccc(Cl)c(Cl)c2)s1 | 15.8 |  | 10.3 µM [rising, single point]
